Assay [1] deals with T1, human myelin oligodendrocyte glycoprotein (MOG), target used for phage panning and ELISA (human) (UniProt Q16653).
T1 sequence (looked up): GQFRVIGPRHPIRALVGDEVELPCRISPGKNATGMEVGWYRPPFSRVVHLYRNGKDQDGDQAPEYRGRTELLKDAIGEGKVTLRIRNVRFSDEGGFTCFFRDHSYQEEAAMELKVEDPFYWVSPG
In words: monoclonal phage ELISA. In general terms: An ELISA detects its analyte on a solid surface through an enzyme-linked reagent.

For assay [2], the target named is T1, human myelin oligodendrocyte glycoprotein (MOG), target used for phage panning and ELISA (human). In words: soluble ELISA with cell lysates from 30 C and 37 C.
For assay [3] the target is unchanged. In words: QC ELISA titration, seven concentrations, scFv induced at 16 C.
Assay [4] shares this target. In words: QC ELISA, purified scFv-myc-6xHis.
Assay [5] addresses T2, MOG-1 expressed on HEK293 cells (UniProt Q16653).
T2 sequence (looked up): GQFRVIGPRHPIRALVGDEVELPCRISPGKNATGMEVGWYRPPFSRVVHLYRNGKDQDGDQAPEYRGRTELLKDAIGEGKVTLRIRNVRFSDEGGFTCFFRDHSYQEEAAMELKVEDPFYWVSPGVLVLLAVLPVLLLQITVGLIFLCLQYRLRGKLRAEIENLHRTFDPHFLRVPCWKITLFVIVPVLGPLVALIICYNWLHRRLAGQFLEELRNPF
Put plainly: FITC-labelled scFv on MOG-1 expressing HEK293 cells, fluorescence microscopy (scFv-FITC / Cell Mask Red ratio).

Residue numbers refer to the chain shown, from its start. These are yes or no findings as the source states them, for the method shown. Some binding calls cover weakened binding; strength is not graded here. For some assays here: Where a sequence is shown, tags or fusion partners need not be part of it.

B1: Clone 10 scFv (scFv)
scFv: MEVQLLESGGGLVQPGGSLRLSCAASGFTFSSYAMSWVRQAPGKGLEWVSGITNYGYTTYYADSVKGRFTISRDNSKNTLYLQMNSLRAEDTAVYYCAKSSYSFDYWGQGTLVTVSSGGGGSGGGGSGGGGSTDIQMTQSPSSLSASVGDRVTITCRASQSISSYLNWYQQKPGKAPKLLIYAASALQSGVPSRFSGSGSGTDFTLTISSLQPEDFATYYCQQSAYYPDTFGQGTKVEIK
Consider B1, for which the binding result in assay [1] and in assay [2] was “binds” throughout.

B2: Clone 6 scFv-myc-6xHis (soluble scFv from pET-26b) (scFv)
scFv: MEVQLLESGGGLVQPGGSLRLSCAASGFTFSSYAMSWVRQAPGKGLEWVSTISTYGDYTTYADSVKGRFTISRDNSKNTLYLQMNSLRAEDTAVYYCAKGSYTFDYWGQGTLVTVSSGGGGSGGGGSGGGGSTDIQMTQSPSSLSASVGDRVTITCRASQSISSYLNWYQQKPGKAPKLLIYSASYLQSGVPSRFSGSGSGTDFTLTISSLQPEDFATYYCQQSNATPSTFGQGTKVEIKEFEQKLISEEDLLEHHHHHH
Take B2: the binding result in assay [3], in assay [4] and in assay [5] was “binds” each time.

B3: Clone 17 scFv-myc-6xHis (soluble scFv from pET-26b) (scFv)
scFv: B2 scFv with T51S, Y55S, D57S, T60A, S101G, Y186T, N225D, A226G, T227N, S229T
For the molecule B3, the binding entry in assay [3], in assay [4] and in assay [5] was “binds” throughout.

B4: Clone 1 scFv-myc-6xHis (soluble scFv from pET-26b) (scFv)
scFv: MEVQLLESGGGLVQPGGSLRLSCAASGFTFSSYAMSWVRQAPGKGLEWVSSISDYGNTTAYADSVKGRFTISRDNSKNTLYLQMNSLRAEDTAVYYCAKNANYFDYWGQGTLVTVSSGGGGSGGGGSGGGGSTDIQMTQSPSSLSASVGDRVTITCRASQSISSYLNWYQQKPGKAPKLLIYDASSLQSGVPSRFSGSGSGTDFTLTISSLQPEDFATYYCQQTSTYPGTFGQGTKVEIKEFEQKLISEEDLLEHHHHHH
As to B4, the binding result in assay [3] and in assay [4] was “binds” in each case.

B5: Clone 1 scFv (scFv)
scFv: MEVQLLESGGGLVQPGGSLRLSCAASGFTFSSYAMSWVRQAPGKGLEWVSSISDYGNTTAYADSVKGRFTISRDNSKNTLYLQMNSLRAEDTAVYYCAKNANYFDYWGQGTLVTVSSGGGGSGGGGSGGGGSTDIQMTQSPSSLSASVGDRVTITCRASQSISSYLNWYQQKPGKAPKLLIYDASSLQSGVPSRFSGSGSGTDFTLTISSLQPEDFATYYCQQTSTYPGTFGQGTKVEIK
Take B5: the binding result in assay [1] and in assay [2] was “binds” throughout.

B6: scFv 4 (pelB-VH-Linker-VL-6His), FITC-labelled (scFv)
scFv: MAEVKLHESGAGLVKPGASVEISCKATGYTFSSFWIEWVKQRPGHGLEWIGEILPGRGRTNYNEKFKGKATFTAETSSNTAYMQLSSLTSEDSAVYYCATGNTMVNMPYWGQGTTVTVSSGGGGSGGGGSGGGGSDIELTQSPSSLAVSAGEKVTMSCKSSQSLLNSGNQKNYLAWYQQKPGLPPKLLIYGASTRESGVPDRFTGSGSGTDFTLTISSVQAEDLAVYYCQNDHSYPLTFGAGTKLEIKRLEHHHHHH
modifications: FITC-labelled (2.52 FITC molecules were labeled for each scFv antibody fragment)
In the case of B6, the binding result in assay [5] is reported as “binds”.

B7: Clone 6 scFv (scFv)
scFv: MEVQLLESGGGLVQPGGSLRLSCAASGFTFSSYAMSWVRQAPGKGLEWVSTISTYGDYTTYADSVKGRFTISRDNSKNTLYLQMNSLRAEDTAVYYCAKGSYTFDYWGQGTLVTVSSGGGGSGGGGSGGGGSTDIQMTQSPSSLSASVGDRVTITCRASQSISSYLNWYQQKPGKAPKLLIYSASYLQSGVPSRFSGSGSGTDFTLTISSLQPEDFATYYCQQSNATPSTFGQGTKVEIK
Regarding B7, the binding entry in assay [1] and in assay [2] was “binds” each time.

B8: Clone 17 scFv (scFv)
scFv: B7 scFv with T51S, Y55S, D57S, T60A, S101G, Y186T, N225D, A226G, T227N, S229T
Consider B8, for which the binding entry in assay [1] and in assay [2] was “binds” throughout.

B9: Clone 3 scFv (scFv)
scFv: MEVQLLESGGGLVQPGGSLRLSCAASGFTFSSYAMSWVRQAPGKGLEWVSSISSYGSYTGYADSVKGRFTISRDNSKNTLYLQMNSLRAEDTAVYYCAKNGYAFDYWGQGTLVTVSSGGGGSGGGGSGGGGSTDIQMTQSPSSLSASVGDRVTITCRASQSISSYLNWYQQKPGKAPKLLIYGASALQSGVPSRFSGSGSGTDFTLTISSLQPEDFATYYCQQNDASPNTFGQGTKVEIK
As to B9, the binding result in assay [1] and in assay [2] was “binds” each time.

B10: Clone 10 scFv-myc-6xHis (soluble scFv from pET-26b) (scFv)
scFv: MEVQLLESGGGLVQPGGSLRLSCAASGFTFSSYAMSWVRQAPGKGLEWVSGITNYGYTTYYADSVKGRFTISRDNSKNTLYLQMNSLRAEDTAVYYCAKSSYSFDYWGQGTLVTVSSGGGGSGGGGSGGGGSTDIQMTQSPSSLSASVGDRVTITCRASQSISSYLNWYQQKPGKAPKLLIYAASALQSGVPSRFSGSGSGTDFTLTISSLQPEDFATYYCQQSAYYPDTFGQGTKVEIKEFEQKLISEEDLLEHHHHHH
On to B10, for which the binding result in assay [3] and in assay [4] was “binds” in each case.

B11: Clone 13 scFv (scFv)
scFv: MEVQLLESGGGLVQPGGSLRLSCAASGFTFSSYAMSWVRQAPGKGLEWVSSINSAGGSTYYADSVKGRFTISRDNSKNTLYLQMNSLRAEDTAVYYCAKNSAYFDYWGQGTLVTVSSGGGGSGGGGSGGGGSTDIQMTQSPSSLSASVGDRVTITCRASQSISSYLNWYQQKPGKAPKLLIYDASNLQSGVPSRFSGSGSGTDFTLTISSLQPEDFATYYCQQTDTYPTTFGQGTKVEIK
With B11, the binding entry in assay [1] and in assay [2] was “binds” each time.

B12: Clone 21 scFv (scFv)
scFv: MEVQLLESGGGLVQPGGSLRLSCAASGFTFSSYAMSWVRQAPGKGLEWVSSISYSGAYTAYADSVNGRFTISRDNSKNTLYLQMNSLRAEDTAVYYCAKSGTDFDYWGQGTLVTVSSGGGGSGGGGSGGGGSTDIQMTQSPSSLSASVGDRVTITCRASQSISSYLNWYQQKPGKAPKLLIYGASNLQSGVPSRFSGSGSGTDFTLTISSLQPEDFATYYCQQSNYDPSTFGQGTKVEIK
With B12, the binding entry in assay [1] and in assay [2] was “binds” in each case.

B13: Clone 13 scFv-myc-6xHis (soluble scFv from pET-26b) (scFv)
scFv: MEVQLLESGGGLVQPGGSLRLSCAASGFTFSSYAMSWVRQAPGKGLEWVSSINSAGGSTYYADSVKGRFTISRDNSKNTLYLQMNSLRAEDTAVYYCAKNSAYFDYWGQGTLVTVSSGGGGSGGGGSGGGGSTDIQMTQSPSSLSASVGDRVTITCRASQSISSYLNWYQQKPGKAPKLLIYDASNLQSGVPSRFSGSGSGTDFTLTISSLQPEDFATYYCQQTDTYPTTFGQGTKVEIKEFEQKLISEEDLLEHHHHHH
In the case of B13, the binding result in assay [3] and in assay [4] was “binds” each time.

B14: Clone 21 scFv-myc-6xHis (soluble scFv from pET-26b) (scFv)
scFv: MEVQLLESGGGLVQPGGSLRLSCAASGFTFSSYAMSWVRQAPGKGLEWVSSISYSGAYTAYADSVNGRFTISRDNSKNTLYLQMNSLRAEDTAVYYCAKSGTDFDYWGQGTLVTVSSGGGGSGGGGSGGGGSTDIQMTQSPSSLSASVGDRVTITCRASQSISSYLNWYQQKPGKAPKLLIYGASNLQSGVPSRFSGSGSGTDFTLTISSLQPEDFATYYCQQSNYDPSTFGQGTKVEIKEFEQKLISEEDLLEHHHHHH
For B14, the binding result in assay [3] and in assay [4] was “binds” throughout.

B15: Clone 3 scFv-myc-6xHis (soluble scFv from pET-26b) (scFv)
scFv: MEVQLLESGGGLVQPGGSLRLSCAASGFTFSSYAMSWVRQAPGKGLEWVSSISSYGSYTGYADSVKGRFTISRDNSKNTLYLQMNSLRAEDTAVYYCAKNGYAFDYWGQGTLVTVSSGGGGSGGGGSGGGGSTDIQMTQSPSSLSASVGDRVTITCRASQSISSYLNWYQQKPGKAPKLLIYGASALQSGVPSRFSGSGSGTDFTLTISSLQPEDFATYYCQQNDASPNTFGQGTKVEIKEFEQKLISEEDLLEHHHHHH
On to B15, for which the binding result in assay [3], in assay [4] and in assay [5] was “binds” each time.

The values above are taken from US20230210899A1.
